{"source": "PubChem BioAssay AID1224830 – NIAID – 2016", "assay": "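Genes whose knock-down alters the TNF-alpha reporter response to LPS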 (primary screen)", "system": "human THP-1 monocytic leukaemia cells, TNF dual-luciferase reporter clone, PMA-differentiated to macrophage-like cells", "reagent": "siRNA pool against human genes, 50 nM", "timing": "LPS for 4 h, given about 3 days after siRNA transfection", "challenge": "bacterial LPS (TLR4 ligand), 10 ng/ml", "detection": "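Ratio of firefly to renilla light, scaled to the plate median and expressed as a robust z-score per replicate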", "reading the numbers": "TNF reporter robust z-score: higher = stronger TNF reporter response to LPS", "hit rule": "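Each well counts as active if its z-score is over 2.8 or under -1.5; controls are left without a call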", "note": "This is an unselected part of about 18,000 reagents. About 2,900 of them (16%) were called active. 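Calls are made per well; low scores hint the gene aids the LPS response, high scores that it dampens it.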 Unmarked entries are inactive. Repeated entries: four replicate wells of each siRNA pool."}
{"gene":"SPSB1 (splA/ryanodine receptor domain and SOCS box containing 1)","TNF reporter robust z-score":-1}
{"gene":"SPSB1 (splA/ryanodine receptor domain and SOCS box containing 1)","TNF reporter robust z-score":0.07}
{"gene":"SPSB1 (splA/ryanodine receptor domain and SOCS box containing 1)","TNF reporter robust z-score":-0.49}
{"gene":"SPSB1 (splA/ryanodine receptor domain and SOCS box containing 1)","TNF reporter robust z-score":-0.09}
{"gene":"HCST (hematopoietic cell signal transducer)","TNF reporter robust z-score":-0.95}
{"gene":"HCST (hematopoietic cell signal transducer)","TNF reporter robust z-score":0.81}
{"gene":"HCST (hematopoietic cell signal transducer)","TNF reporter robust z-score":0.27}
{"gene":"HCST (hematopoietic cell signal transducer)","TNF reporter robust z-score":-0.24}
{"gene":"TMEM222 (transmembrane protein 222)","TNF reporter robust z-score":0.63}
{"gene":"TMEM222 (transmembrane protein 222)","TNF reporter robust z-score":1.12}
{"gene":"TMEM222 (transmembrane protein 222)","TNF reporter robust z-score":0.13}
{"gene":"OMP (olfactory marker protein)","TNF reporter robust z-score":0.67}
{"gene":"OMP (olfactory marker protein)","TNF reporter robust z-score":-0.22}
{"gene":"OMP (olfactory marker protein)","TNF reporter robust z-score":0.03}
{"gene":"OMP (olfactory marker protein)","TNF reporter robust z-score":2.08}
{"gene":"ADAM20 (ADAM metallopeptidase domain 20)","TNF reporter robust z-score":-0.67}
{"gene":"ADAM20 (ADAM metallopeptidase domain 20)","TNF reporter robust z-score":0.37}
{"gene":"ADAM20 (ADAM metallopeptidase domain 20)","TNF reporter robust z-score":0.93}
{"gene":"ADAM20 (ADAM metallopeptidase domain 20)","TNF reporter robust z-score":0.41}
{"gene":"CETP (cholesteryl ester transfer protein)","TNF reporter robust z-score":0.38}
{"gene":"CETP (cholesteryl ester transfer protein)","TNF reporter robust z-score":1.66}
{"gene":"CETP (cholesteryl ester transfer protein)","TNF reporter robust z-score":0.42}
{"gene":"CETP (cholesteryl ester transfer protein)","TNF reporter robust z-score":0.14}
{"gene":"NAGA (alpha-N-acetylgalactosaminidase)","TNF reporter robust z-score":1.95}
{"gene":"NAGA (alpha-N-acetylgalactosaminidase)","TNF reporter robust z-score":"3.21 (active)"}
{"gene":"NAGA (alpha-N-acetylgalactosaminidase)","TNF reporter robust z-score":0.23}
{"gene":"NAGA (alpha-N-acetylgalactosaminidase)","TNF reporter robust z-score":2.48}
{"gene":"KRT26 (keratin 26)","TNF reporter robust z-score":0.44}
{"gene":"KRT26 (keratin 26)","TNF reporter robust z-score":-0.37}
{"gene":"KRT26 (keratin 26)","TNF reporter robust z-score":-0.48}
{"gene":"KRT26 (keratin 26)","TNF reporter robust z-score":0.74}
{"gene":"AMZ1 (archaelysin family metallopeptidase 1)","TNF reporter robust z-score":0.15}
{"gene":"AMZ1 (archaelysin family metallopeptidase 1)","TNF reporter robust z-score":1.08}
{"gene":"AMZ1 (archaelysin family metallopeptidase 1)","TNF reporter robust z-score":-0.69}
{"gene":"AMZ1 (archaelysin family metallopeptidase 1)","TNF reporter robust z-score":-0.25}
{"gene":"CHST4 (carbohydrate sulfotransferase 4)","TNF reporter robust z-score":-0.88}
{"gene":"CHST4 (carbohydrate sulfotransferase 4)","TNF reporter robust z-score":1.12}
{"gene":"CHST4 (carbohydrate sulfotransferase 4)","TNF reporter robust z-score":0.36}
{"gene":"CHST4 (carbohydrate sulfotransferase 4)","TNF reporter robust z-score":-0.07}
{"gene":"XPOT (exportin for tRNA)","TNF reporter robust z-score":0.2}
{"gene":"XPOT (exportin for tRNA)","TNF reporter robust z-score":1.39}
{"gene":"XPOT (exportin for tRNA)","TNF reporter robust z-score":0.32}
{"gene":"XPOT (exportin for tRNA)","TNF reporter robust z-score":1.2}
{"gene":"ACAD11 (acyl-CoA dehydrogenase family member 11)","TNF reporter robust z-score":1.11}
{"gene":"ACAD11 (acyl-CoA dehydrogenase family member 11)","TNF reporter robust z-score":1}
{"gene":"ACAD11 (acyl-CoA dehydrogenase family member 11)","TNF reporter robust z-score":0.77}
{"gene":"ACAD11 (acyl-CoA dehydrogenase family member 11)","TNF reporter robust z-score":0.72}
